{
  "sequences": {"note": "Amino acid sequences for entries named in this document (tags omitted).", "UniProt Q8NHX9": "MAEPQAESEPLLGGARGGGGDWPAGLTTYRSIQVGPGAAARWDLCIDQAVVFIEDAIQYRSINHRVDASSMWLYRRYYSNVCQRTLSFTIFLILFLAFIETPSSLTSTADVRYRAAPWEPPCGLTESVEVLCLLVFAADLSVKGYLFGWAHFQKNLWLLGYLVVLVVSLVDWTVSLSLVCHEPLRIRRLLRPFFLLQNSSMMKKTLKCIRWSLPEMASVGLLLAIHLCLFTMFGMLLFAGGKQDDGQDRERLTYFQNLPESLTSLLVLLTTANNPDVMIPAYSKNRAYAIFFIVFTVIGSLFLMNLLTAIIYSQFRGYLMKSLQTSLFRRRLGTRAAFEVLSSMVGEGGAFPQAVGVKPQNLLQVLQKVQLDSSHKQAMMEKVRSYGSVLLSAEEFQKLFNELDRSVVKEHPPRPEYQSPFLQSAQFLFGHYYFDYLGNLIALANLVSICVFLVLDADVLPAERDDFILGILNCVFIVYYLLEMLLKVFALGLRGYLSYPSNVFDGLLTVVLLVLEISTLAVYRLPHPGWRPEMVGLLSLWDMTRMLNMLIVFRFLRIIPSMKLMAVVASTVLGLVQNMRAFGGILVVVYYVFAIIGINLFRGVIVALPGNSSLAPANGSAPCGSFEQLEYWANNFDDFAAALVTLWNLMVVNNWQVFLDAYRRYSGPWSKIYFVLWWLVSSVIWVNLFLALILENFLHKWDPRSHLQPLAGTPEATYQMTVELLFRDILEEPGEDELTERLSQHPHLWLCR", "UniProt P51149": "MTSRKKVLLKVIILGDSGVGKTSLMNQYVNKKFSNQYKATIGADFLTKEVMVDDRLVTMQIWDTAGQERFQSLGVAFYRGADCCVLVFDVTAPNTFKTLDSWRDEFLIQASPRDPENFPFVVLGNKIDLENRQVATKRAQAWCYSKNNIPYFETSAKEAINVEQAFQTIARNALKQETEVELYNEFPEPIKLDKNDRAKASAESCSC"},
  "source": "paper PMC11576762",
  "target": "hTPC2-myc (Myc-tagged TPC2) (human) (UniProt Q8NHX9)",
  "test": "co-IP; HEK293 co-transfected; lysis in PBS, 1% Triton X-100 with protease and phosphatase inhibitors; Myc-tagged TPC2 precipitated with anti-Myc magnetic agarose beads, overnight at 4 °C, three washes; Western blot",
  "note": "These are yes or no findings as the source states them, for the method shown. In cells and extracts the contact can be indirect. Some entries that bind do so weakly or less than the wild type.",
  "data": [
    {"substance": "Rab7a as co-expressed for the co-immunoprecipitation (from UniProt P51149 1-207)", "values": [
      {"measurement": "binding", "value": "binds"}
    ]}
  ]
}
